Measurements from the supplement of paper PMC10849652.
The other results are listed elsewhere or left out.

Sequences of proteins named here, by UniProt entry; tags and fusion partners are left off. A change or cut given only in a name is not applied to a line headed by its entry.
UniProt O95747, whole entry, looked up: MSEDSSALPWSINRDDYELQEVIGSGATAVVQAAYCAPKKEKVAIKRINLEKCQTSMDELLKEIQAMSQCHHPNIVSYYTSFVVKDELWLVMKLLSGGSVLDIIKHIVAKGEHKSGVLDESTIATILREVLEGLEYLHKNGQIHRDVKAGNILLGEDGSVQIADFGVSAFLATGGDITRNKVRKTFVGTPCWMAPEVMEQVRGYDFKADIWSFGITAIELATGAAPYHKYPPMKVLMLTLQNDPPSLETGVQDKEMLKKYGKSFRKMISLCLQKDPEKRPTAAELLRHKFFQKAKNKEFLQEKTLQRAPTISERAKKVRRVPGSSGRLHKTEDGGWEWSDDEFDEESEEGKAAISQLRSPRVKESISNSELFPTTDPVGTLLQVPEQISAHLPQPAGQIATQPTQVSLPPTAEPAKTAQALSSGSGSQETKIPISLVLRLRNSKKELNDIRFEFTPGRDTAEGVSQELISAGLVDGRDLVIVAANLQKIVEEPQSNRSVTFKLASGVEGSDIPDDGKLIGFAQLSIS
UniProt Q5W0B1: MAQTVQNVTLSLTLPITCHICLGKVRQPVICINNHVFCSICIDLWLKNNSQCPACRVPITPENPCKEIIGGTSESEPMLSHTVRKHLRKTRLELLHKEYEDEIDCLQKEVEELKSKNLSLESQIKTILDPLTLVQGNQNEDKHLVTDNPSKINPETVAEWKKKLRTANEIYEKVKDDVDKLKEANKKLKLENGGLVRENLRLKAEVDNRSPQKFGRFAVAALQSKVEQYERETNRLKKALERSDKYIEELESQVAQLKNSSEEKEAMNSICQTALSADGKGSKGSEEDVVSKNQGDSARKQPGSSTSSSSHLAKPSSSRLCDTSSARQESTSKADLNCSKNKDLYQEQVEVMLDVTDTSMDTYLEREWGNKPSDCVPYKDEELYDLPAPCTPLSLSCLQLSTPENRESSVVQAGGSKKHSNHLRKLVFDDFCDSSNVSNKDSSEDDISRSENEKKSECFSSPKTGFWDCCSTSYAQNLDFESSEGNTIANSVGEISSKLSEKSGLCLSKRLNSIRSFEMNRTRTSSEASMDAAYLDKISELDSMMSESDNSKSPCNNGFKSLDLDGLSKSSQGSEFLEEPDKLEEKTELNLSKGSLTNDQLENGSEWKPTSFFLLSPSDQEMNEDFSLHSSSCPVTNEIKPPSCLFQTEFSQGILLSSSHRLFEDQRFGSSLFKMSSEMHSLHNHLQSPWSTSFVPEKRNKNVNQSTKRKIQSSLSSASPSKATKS
UniProt Q7Z3B4: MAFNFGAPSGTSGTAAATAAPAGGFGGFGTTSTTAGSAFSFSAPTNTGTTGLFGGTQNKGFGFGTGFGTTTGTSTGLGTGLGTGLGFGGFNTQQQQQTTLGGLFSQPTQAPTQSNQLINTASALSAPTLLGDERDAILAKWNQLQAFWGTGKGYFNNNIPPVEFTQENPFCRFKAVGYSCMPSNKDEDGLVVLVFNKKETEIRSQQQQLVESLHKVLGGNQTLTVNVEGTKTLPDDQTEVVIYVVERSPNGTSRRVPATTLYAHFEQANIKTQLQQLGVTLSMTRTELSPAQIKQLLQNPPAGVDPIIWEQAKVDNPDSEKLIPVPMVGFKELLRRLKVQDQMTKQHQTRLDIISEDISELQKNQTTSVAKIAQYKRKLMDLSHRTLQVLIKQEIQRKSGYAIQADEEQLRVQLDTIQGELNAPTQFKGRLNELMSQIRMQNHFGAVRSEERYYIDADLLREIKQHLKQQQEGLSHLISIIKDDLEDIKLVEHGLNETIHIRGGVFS
UniProt Q9Y530: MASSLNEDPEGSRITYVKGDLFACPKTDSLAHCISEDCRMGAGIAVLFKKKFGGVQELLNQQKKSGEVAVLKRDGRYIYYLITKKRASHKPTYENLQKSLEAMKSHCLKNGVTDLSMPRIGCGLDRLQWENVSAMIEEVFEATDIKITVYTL
UniProt Q9BPZ3: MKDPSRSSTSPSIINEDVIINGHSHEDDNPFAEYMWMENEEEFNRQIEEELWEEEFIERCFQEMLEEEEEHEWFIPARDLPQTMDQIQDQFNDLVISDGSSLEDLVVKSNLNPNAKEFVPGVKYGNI
UniProt Q9UBD5: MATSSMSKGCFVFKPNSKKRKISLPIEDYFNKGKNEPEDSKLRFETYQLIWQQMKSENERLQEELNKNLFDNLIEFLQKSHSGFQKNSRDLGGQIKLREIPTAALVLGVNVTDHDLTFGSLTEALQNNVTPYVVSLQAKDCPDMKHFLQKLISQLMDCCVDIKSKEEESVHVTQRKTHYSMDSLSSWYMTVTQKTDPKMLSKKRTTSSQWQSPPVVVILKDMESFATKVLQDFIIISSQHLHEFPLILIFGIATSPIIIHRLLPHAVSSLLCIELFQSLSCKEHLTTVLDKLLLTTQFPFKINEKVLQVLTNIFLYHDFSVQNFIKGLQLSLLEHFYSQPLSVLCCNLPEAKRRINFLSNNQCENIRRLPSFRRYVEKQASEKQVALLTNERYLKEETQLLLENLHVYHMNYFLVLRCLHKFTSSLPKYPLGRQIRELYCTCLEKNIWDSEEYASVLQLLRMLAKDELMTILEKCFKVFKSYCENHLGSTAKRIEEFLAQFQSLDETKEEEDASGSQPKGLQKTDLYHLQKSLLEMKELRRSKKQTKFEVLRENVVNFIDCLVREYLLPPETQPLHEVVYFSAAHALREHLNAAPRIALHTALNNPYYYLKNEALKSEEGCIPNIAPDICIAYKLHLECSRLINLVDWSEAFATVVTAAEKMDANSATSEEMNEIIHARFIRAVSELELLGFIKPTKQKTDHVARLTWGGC
UniProt Q9UKX7: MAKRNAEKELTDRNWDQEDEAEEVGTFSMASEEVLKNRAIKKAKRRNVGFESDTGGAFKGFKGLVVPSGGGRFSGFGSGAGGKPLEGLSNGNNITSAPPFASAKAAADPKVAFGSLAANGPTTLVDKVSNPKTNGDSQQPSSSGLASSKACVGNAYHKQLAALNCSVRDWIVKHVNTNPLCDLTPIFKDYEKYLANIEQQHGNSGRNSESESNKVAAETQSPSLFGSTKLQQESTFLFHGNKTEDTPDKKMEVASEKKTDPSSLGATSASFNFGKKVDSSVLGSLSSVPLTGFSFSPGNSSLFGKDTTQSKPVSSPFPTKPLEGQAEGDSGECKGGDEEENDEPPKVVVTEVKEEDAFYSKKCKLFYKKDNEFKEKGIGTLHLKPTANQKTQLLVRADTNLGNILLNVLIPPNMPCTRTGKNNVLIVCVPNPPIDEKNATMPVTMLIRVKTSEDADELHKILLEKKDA
UniProt Q8WZ82: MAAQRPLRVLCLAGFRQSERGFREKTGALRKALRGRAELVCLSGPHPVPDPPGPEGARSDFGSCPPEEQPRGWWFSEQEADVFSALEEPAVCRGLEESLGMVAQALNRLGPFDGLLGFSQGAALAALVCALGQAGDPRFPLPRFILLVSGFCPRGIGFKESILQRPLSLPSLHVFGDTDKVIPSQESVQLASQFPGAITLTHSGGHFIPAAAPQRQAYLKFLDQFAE
UniProt Q9BZ23: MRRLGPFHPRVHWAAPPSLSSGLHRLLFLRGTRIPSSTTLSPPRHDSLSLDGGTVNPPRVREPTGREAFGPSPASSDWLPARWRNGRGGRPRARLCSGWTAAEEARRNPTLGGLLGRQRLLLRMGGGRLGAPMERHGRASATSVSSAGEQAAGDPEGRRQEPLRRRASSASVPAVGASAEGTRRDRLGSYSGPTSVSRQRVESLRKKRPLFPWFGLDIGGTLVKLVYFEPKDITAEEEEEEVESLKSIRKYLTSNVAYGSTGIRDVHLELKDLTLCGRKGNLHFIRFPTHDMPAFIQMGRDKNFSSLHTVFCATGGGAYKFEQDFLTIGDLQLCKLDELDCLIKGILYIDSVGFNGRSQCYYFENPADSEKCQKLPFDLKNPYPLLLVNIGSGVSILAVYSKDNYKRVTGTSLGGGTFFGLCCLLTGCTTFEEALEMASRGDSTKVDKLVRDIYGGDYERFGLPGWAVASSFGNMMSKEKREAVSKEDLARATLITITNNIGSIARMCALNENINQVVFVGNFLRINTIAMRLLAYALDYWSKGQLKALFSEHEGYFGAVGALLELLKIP
UniProt Q9BXW6, whole entry, looked up: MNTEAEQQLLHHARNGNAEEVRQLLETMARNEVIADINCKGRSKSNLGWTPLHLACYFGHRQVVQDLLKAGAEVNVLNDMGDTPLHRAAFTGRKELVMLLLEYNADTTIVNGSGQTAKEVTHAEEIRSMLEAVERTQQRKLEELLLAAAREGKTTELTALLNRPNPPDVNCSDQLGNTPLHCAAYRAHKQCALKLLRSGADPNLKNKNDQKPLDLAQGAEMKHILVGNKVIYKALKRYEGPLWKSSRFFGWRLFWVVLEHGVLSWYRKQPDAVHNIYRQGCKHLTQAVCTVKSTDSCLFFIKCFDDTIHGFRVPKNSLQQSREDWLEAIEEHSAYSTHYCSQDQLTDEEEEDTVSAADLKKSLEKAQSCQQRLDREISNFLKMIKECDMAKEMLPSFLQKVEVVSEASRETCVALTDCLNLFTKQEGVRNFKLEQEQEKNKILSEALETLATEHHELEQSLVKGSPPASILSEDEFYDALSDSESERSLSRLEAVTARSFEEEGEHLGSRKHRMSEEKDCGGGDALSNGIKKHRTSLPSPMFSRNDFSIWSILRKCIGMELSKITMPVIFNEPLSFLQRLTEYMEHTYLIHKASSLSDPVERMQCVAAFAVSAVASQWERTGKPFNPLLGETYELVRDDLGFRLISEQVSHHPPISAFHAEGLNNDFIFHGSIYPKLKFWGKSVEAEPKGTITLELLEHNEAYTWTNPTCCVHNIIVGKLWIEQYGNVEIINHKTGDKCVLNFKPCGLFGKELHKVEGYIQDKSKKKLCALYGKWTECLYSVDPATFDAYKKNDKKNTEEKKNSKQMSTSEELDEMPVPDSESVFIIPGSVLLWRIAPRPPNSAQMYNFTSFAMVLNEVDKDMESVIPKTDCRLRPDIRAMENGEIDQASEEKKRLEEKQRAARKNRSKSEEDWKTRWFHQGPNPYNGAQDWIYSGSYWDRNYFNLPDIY
UniProt Q96GU1: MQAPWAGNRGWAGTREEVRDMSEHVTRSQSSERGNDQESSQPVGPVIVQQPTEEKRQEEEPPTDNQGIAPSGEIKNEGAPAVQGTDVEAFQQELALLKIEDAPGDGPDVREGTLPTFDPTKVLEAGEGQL
UniProt P43034: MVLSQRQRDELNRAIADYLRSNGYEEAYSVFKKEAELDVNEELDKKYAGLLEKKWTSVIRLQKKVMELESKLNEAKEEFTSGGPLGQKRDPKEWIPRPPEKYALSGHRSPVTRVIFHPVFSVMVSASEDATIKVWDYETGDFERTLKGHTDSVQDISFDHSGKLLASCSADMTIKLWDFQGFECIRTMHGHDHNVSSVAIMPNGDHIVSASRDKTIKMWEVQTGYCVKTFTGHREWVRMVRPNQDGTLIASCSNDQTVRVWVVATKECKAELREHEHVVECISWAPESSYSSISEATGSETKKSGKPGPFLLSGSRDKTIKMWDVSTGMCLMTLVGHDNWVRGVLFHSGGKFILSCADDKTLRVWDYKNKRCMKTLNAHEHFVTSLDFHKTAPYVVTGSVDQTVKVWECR
UniProt Q8NFH5: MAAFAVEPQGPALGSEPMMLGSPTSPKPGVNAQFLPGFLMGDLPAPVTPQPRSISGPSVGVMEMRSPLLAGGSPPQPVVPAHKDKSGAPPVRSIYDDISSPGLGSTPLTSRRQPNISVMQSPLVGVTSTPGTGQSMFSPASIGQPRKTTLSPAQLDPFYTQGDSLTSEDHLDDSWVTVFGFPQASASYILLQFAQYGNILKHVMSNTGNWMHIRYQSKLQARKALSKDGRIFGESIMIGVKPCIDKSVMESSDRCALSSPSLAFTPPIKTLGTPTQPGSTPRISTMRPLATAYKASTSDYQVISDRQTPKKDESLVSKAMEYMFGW
UniProt Q9NRP0: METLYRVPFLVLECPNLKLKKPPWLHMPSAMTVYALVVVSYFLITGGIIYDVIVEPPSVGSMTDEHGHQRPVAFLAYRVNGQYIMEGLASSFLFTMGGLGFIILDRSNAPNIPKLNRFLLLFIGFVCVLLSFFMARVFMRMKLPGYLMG
UniProt Q8TE04: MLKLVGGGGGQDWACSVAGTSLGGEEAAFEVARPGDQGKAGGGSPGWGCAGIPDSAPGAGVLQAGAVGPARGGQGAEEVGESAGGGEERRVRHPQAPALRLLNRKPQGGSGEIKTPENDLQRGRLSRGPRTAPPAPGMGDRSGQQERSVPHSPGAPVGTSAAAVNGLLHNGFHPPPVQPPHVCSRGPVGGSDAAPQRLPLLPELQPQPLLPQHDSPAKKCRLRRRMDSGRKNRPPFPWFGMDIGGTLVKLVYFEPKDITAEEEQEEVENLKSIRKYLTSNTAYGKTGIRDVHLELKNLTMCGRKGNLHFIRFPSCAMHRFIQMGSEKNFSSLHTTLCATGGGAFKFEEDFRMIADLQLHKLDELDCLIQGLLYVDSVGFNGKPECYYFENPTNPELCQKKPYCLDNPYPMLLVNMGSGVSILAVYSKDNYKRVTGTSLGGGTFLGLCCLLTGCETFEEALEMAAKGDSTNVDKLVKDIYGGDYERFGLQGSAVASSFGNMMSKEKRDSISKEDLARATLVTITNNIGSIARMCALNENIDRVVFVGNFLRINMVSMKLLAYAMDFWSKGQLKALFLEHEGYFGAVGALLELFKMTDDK

Key:
Assay in all cases: log2 fold change, soluble protein after heating vs DMSO (PISA); higher = thermal stabilisation; K562 lysate, 10 uM; active = over 0.2 and 3.5 SD of the protein, either way, in both replicates (recomputed)
lapatinib = compound: CS(=O)(=O)CCNCc1ccc(-c2ccc3ncnc(Nc4ccc(OCc5cccc(F)c5)c(Cl)c4)c3c2)o1 [lapatinib]
Method in brief: (§1)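 The values are log-two fold changes in thermal stability compared with solvent controls and come from duplicates. They were obtained by TMTpro 16plex LC-MS/MS, with channel sums equalised, on the supernatant after 21,000xg for 90 min. That supernatant came from crude K562 extract at 1 mg/mL protein treated with 10 μM compound for 30 min, heated for 3 min across 48°C-58°C, pooled and brought to 0.5% NP-40 at 4°C.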

pictilisib = compound: CS(=O)(=O)N1CCN(Cc2cc3nc(-c4cccc5[nH]ncc45)nc(N4CCOCC4)c3s2)CC1 [pictilisib]
Method in brief: as §1

crizotinib = compound: C[C@@H](Oc1cc(-c2cnn(C3CCNCC3)c2)cnc1N)c1c(Cl)ccc(F)c1Cl [crizotinib]
Method in brief: as §1

[1] = compound: C[C@H](C1=CC=C(C=C1)C(=O)NC2=C3C=CNC3=NC=C2)N
Method in brief: as §1

duvelisib = compound: C[C@H](Nc1ncnc2nc[nH]c12)c1cc2cccc(Cl)c2c(=O)n1-c1ccccc1 [duvelisib]
Method in brief: as §1

gandotinib = compound: Cc1cc(Nc2cc(CN3CCOCC3)c3nc(C)c(Cc4ccc(Cl)cc4F)n3n2)n[nH]1 [gandotinib]
Method in brief: as §1

tozasertib = compound: Cc1cc(Nc2cc(N3CCN(C)CC3)nc(Sc3ccc(NC(=O)C4CC4)cc3)n2)n[nH]1 [tozasertib]
Method in brief: as §1

doramapimod = compound: Cc1ccc(-n2nc(C(C)(C)C)cc2NC(=O)Nc2ccc(OCCN3CCOCC3)c3ccccc23)cc1 [doramapimod]
Method in brief: as §1

bafetinib = compound: Cc1ccc(NC(=O)c2ccc(CN3CC[C@H](N(C)C)C3)c(C(F)(F)F)c2)cc1Nc1nccc(-c2cncnc2)n1 [bafetinib]
Method in brief: as §1

[2] = compound: Cc1cccc(CC(=O)N2CCc3c2ccc(-c2cn(C)c4ncnc(N)c24)c3F)n1
Method in brief: as §1

| Target | log2 fold change (lapatinib) | log2 fold change (pictilisib) | log2 fold change (crizotinib) | log2 fold change [1] | log2 fold change (duvelisib) | log2 fold change (gandotinib) | log2 fold change (tozasertib) | log2 fold change (doramapimod) | log2 fold change (bafetinib) | log2 fold change [2] |
| --- | --- | --- | --- | --- | --- | --- | --- | --- | --- | --- |
| OXSR1 (UniProt O95747) | inactive: -0.034 | inactive: -0.018 | inactive: -0.026 | inactive: 0.034 | inactive: -0.016 | inactive: -0.074 | inactive: -0.004 | inactive: 0.014 | inactive: -0.035 | inactive: -0.022 |
| PAICS (UniProt E9PBS1) | inactive: -0.189 | inactive: -0.177 | inactive: 0.173 | inactive: -0.075 | inactive: 0.077 | inactive: -0.147 | inactive: 0.185 | inactive: -0.032 | inactive: 0.008 | inactive: -0.038 |
| OBI1 (UniProt Q5W0B1) | inactive: 0.17 | inactive: 0.019 | inactive: -0.064 | inactive: 0.049 | inactive: 0.004 | inactive: -0.153 | inactive: -0.026 | inactive: -0.011 | inactive: -0.054 | inactive: -0.01 |
| NUP54 (UniProt Q7Z3B4) | inactive: 0.04 | inactive: -0.025 | inactive: 0.003 | inactive: -0.131 | inactive: -0.007 | inactive: 0.108 | inactive: 0.023 | inactive: -0.031 | inactive: -0.014 | inactive: 0.186 |
| OARD1 (UniProt Q9Y530) | inactive: -0.001 | inactive: -0.011 | inactive: -0.003 | inactive: -0.022 | inactive: -0.015 | inactive: -0.012 | inactive: 0.042 | inactive: 0.035 | inactive: -0.023 | inactive: 0.037 |
| PAIP2 (UniProt Q9BPZ3) | inactive: 0.013 | inactive: -0.036 | inactive: 0.021 | inactive: -0.008 | inactive: -0.04 | inactive: 0.022 | inactive: 0.035 | inactive: 0.043 | inactive: 0.073 | inactive: 0.02 |
| OGDH (UniProt Q02218) | inactive: 0.01 | inactive: -0.006 | inactive: -0.022 | inactive: -0.05 | inactive: -0.01 | inactive: -0.073 | inactive: -0.005 | inactive: 0.005 | inactive: -0.042 | inactive: 0.052 |
| ORC3 isoform 2 (UniProt Q9UBD5) | inactive: -0.014 | inactive: -0.011 | inactive: -0.119 | inactive: -0.008 | inactive: -0.025 | inactive: -0.097 | inactive: -0.024 | inactive: -0.009 | inactive: -0.046 | inactive: 0.001 |
| NUP50 (UniProt Q9UKX7) | inactive: 0.017 | inactive: -0.009 | inactive: 0.032 | inactive: -0.129 | inactive: -0.012 | inactive: 0.061 | inactive: 0.024 | inactive: -0.008 | inactive: -0.016 | inactive: 0.044 |
| NXF1 (UniProt Q9UBU9) | inactive: -0.064 | inactive: -0.07 | inactive: -0.035 | inactive: 0.111 | inactive: -0.013 | inactive: -0.178 | inactive: -0.028 | inactive: 0.013 | inactive: -0.02 | inactive: 0.003 |
| OVCA2 (UniProt Q8WZ82) | inactive: -0.002 | inactive: -0.025 | inactive: -0.055 | inactive: 0.11 | inactive: 0.103 | inactive: -0.099 | inactive: 0.046 | inactive: 0.051 | inactive: 0.016 | inactive: 0.006 |
| PANK2 (UniProt Q9BZ23) | inactive: 0.079 | inactive: 0.143 | inactive: -0.073 | inactive: -0.023 | inactive: -0.126 | inactive: 0.077 | inactive: 0.008 | inactive: -0.008 | inactive: -0.029 | inactive: 0.095 |
| PAF1 (UniProt Q8N7H5) | inactive: -0.023 | inactive: -0.038 | inactive: -0.012 | inactive: -0.014 | inactive: 0.03 | inactive: 0.011 | inactive: 0.004 | inactive: 0.004 | inactive: -0.02 | inactive: 0.018 |
| OPHN1 (UniProt O60890) | inactive: -0.008 | inactive: -0.046 |  | inactive: 0.019 | inactive: -0.416 | inactive: -0.058 | inactive: 0.053 |  | inactive: -0.048 | inactive: -0.009 |
| PABPC1 (UniProt H0YAR2) | inactive: -0.03 | inactive: 0.106 | inactive: -0.009 | inactive: -0.225 |  | inactive: 0.159 |  | inactive: 0.04 | inactive: -0.066 | inactive: -0.114 |
| OXR1 (UniProt Q8N573) | inactive: 0.018 | inactive: 0.016 | inactive: 0.006 | inactive: -0.016 | inactive: -0.014 | inactive: 0.115 | inactive: -0.049 | inactive: 0.068 | inactive: -0.014 | inactive: -0.005 |
| PANK3 (UniProt Q9H999) | inactive: 0.071 | inactive: 0.092 |  | inactive: -0.006 | inactive: -0.29 | inactive: -0.092 | inactive: 0.131 |  | inactive: -0.144 | inactive: 0.039 |
| PABPN1 (UniProt Q86U42) | inactive: -0.034 | inactive: -0.034 | inactive: 0.136 | inactive: 0.043 | inactive: 0.096 | inactive: -0.196 | inactive: -0.038 | inactive: -0.044 | inactive: -0.097 | inactive: 0.162 |
| OSBPL1A (UniProt Q9BXW6) | inactive: -0.035 | inactive: -0.051 | inactive: -0.014 | inactive: -0.079 | inactive: 0.072 | inactive: 0.069 |  | inactive: 0.019 | inactive: -0.077 | inactive: 0.102 |
| PAGE5 (UniProt Q96GU1) | inactive: 0.051 | inactive: 0.04 | inactive: 0.035 | inactive: 0.337 | inactive: 0.023 | inactive: -0.163 | inactive: 0.007 | inactive: -0.082 | inactive: -0.03 | inactive: -0.17 |
| OSTM1 (UniProt Q86WC4) | inactive: -0.016 | inactive: -0.083 | inactive: 0.056 | inactive: 0.015 | inactive: 0.007 | inactive: 0.082 | inactive: 0.033 | inactive: 0.003 | inactive: -0.01 | inactive: 0.041 |
| PAFAH1B1 (UniProt P43034) | inactive: 0.006 | inactive: -0.014 | inactive: 0.067 | inactive: 0.072 | inactive: 0.005 | inactive: -0.055 | inactive: -0.002 | inactive: 0.005 | inactive: 0.011 | inactive: -0.103 |
| PAAF1 (UniProt Q9BRP4) | inactive: -0.011 | inactive: -0.012 | inactive: 0.006 | inactive: -0.043 | inactive: 0.009 | inactive: 0.055 | inactive: -0.047 | inactive: 0.004 | inactive: 0.011 | inactive: 0.048 |
| NUP35 (UniProt Q8NFH5) | inactive: 0.025 | inactive: 0.046 | inactive: -0.034 | inactive: 0.044 |  | inactive: 0 | inactive: -0.016 | inactive: 0.104 | inactive: 0.071 | inactive: -0.111 |
| OSTC isoform 2 (UniProt Q9NRP0) | inactive: -0.066 | inactive: -0.038 | inactive: -0.116 | inactive: -0.016 | inactive: -0.012 | inactive: -0.027 | inactive: -0.019 | inactive: -0.032 | inactive: 0.009 | inactive: 0.203 |
| NVL (UniProt O15381) | inactive: -0.025 | inactive: -0.091 | inactive: -0.047 | inactive: -0.007 | inactive: 0.086 | inactive: -0.105 |  | inactive: 0.056 | inactive: 0.018 | inactive: 0.11 |
| PACSIN3 (UniProt Q9UKS6) | inactive: -0.016 | inactive: -0.052 | inactive: -0.039 | inactive: -0.153 | inactive: -0.012 | inactive: -0.249 | inactive: 0.02 | inactive: -0.014 | inactive: -0.099 | inactive: -0.027 |
| ORAI1 (UniProt Q96D31) | inactive: -0.035 | inactive: -0.088 | inactive: -0.081 | inactive: 0 |  | inactive: 0.115 | inactive: 0.085 | inactive: -0.044 | inactive: -0.205 | inactive: 0.105 |
| PANK1 (UniProt Q8TE04) | inactive: -0.008 | inactive: 0.151 | inactive: -0.018 | inactive: 0.106 | inactive: 0.099 | active: -0.31 | inactive: 0.069 | inactive: 0.041 | inactive: -0.062 | inactive: -0.253 |
| PABPC1 (UniProt P11940) | inactive: -0.006 | inactive: 0.011 | inactive: 0.052 | inactive: 0.108 | inactive: -0.023 | inactive: -0.172 | inactive: 0.051 | inactive: -0.007 | inactive: 0.014 | inactive: -0.164 |

Only log2 fold change [2] (two entries from above):
Target,log2 fold change [2]
PANK3 (UniProt Q9H999),inactive: 0.039
PABPN1 (UniProt Q86U42),inactive: 0.162
